Laboratory results published in patent US20150353631A1.
Results are given in words; binding and its absence hold for the method and conditions named. Some results given as binding are weak or reduced against the parent protein; the word gives no strength.

Legend:
[1] = target: Aβ plaques in brain sections of Alzheimer's disease patients (human); assay: IHC on unfixed AD occipital cortex sections, visual score; B (E3/E4), patient 24-01, Braak VI
[2] = target: Aβ plaques in brain sections of Alzheimer's disease patients (human); assay: fluorescent double labeling with 3D6, unfixed AD sections
[3] = target: Aβ plaques in brain sections of Alzheimer's disease patients (human); assay: IHC on unfixed AD occipital cortex sections, visual score; A (E3/E3), patient 8-00′, Braak V
[4] = target: Aβ plaques in brain sections of Alzheimer's disease patients (human); assay: immunoperoxidase staining of unfixed AD brain sections
[5] = target: Aβ plaques in brain sections of Alzheimer's disease patients (human); assay: IHC on unfixed AD occipital cortex sections, visual score; A (E3/E3), patient 05-02′, Braak V
[6] = target: Aβ plaques in brain sections of Alzheimer's disease patients (human); assay: IHC on unfixed AD occipital cortex sections, visual score; B (E3/E4), patient 11-03, Braak V
[7] = target: Aβ plaques in brain sections of Alzheimer's disease patients (human); assay: immunostaining of unfixed AD brain sections, FIGS. 1A and 1B
[8] = target: Aβ plaques in brain sections of Line 41 mice (human (hAPP transgene in mouse)); assay: immunoperoxidase staining of mouse brain sections
[9] = target: Aβ plaques in brain sections of PDAPP mice (human (hAPP transgene in mouse)); assay: immunoperoxidase staining with biotinylated antibody; unfixed and fixed sections, frontal cortex
[10] = target: Aβ plaques in brain sections of Alzheimer's disease patients (human); assay: fluorescent double labeling with 3D6, unfixed AD brain sections, FIG. 3A
[11] = target: Aβ plaques in brain sections of Alzheimer's disease patients (human); assay: IHC on unfixed AD occipital cortex sections, visual score; A (E3/E3), median of five patients
[12] = target: Aβ plaques in brain sections of Alzheimer's disease patients (human); assay: IHC on unfixed AD occipital cortex sections, visual score; B (E3/E4), median of five patients
[13] = target: Aβ plaques in brain sections of Line 41 mice (human (hAPP transgene in mouse)); assay: immunoperoxidase staining with biotinylated antibody; unfixed and fixed sections, somewhat stronger after acetone/ethanol fixation
[14] = target: Aβ plaques in brain sections of Alzheimer's disease patients (human); assay: IHC on unfixed AD occipital cortex sections, visual score; A (E3/E3), patient 24-01, Braak VI
[15] = target: Aβ plaques in brain sections of Alzheimer's disease patients (human); assay: IHC on unfixed AD occipital cortex sections, visual score; B (E3/E4), patient 05-02′, Braak V
[16] = target: Aβ plaques in brain sections of Alzheimer's disease patients (human); assay: IHC on unfixed AD occipital cortex sections, visual score; A (E3/E3), patient 11-03, Braak V
[17] = target: Aβ plaques in brain sections of Alzheimer's disease patients (human); assay: IHC on unfixed AD occipital cortex sections, visual score; B (E3/E4), patient 8-00′, Braak V

Measured: binding

B1: 21F12 monoclonal antibody (antibody, IgG1, V domains shown)
VH: EVQLQQSGPELLKPGASVKISCKASGFTFTDYTMHWMKQSHGKSLEWIGGINPNSGGTIYNEKFKDKATLTVDKSSRTAYMELRSLTSEDSAVYFCTRGVYDGYFYWGQGTLVTVSA
VL: DVVMTQTPLSLPVSLGDQASISCRSSQSLVYSNGNTFLHWYLQKPGQSPKLLIYKVSTRFSGVPDRFSGSGSGSDFTLKISRVEAEDLGIYFCSQTTHAPFTFGSGTKLAI
binds: all assays above
